Assay results from PMC7592556.

Sequences of proteins named here, by UniProt entry; tags and fusion partners are left off. Residues count along the entry.
His6-SUMO fusion protein of the complete Shank3 N-terminus (SPN-Ank, residues 1-348) (Q9JLU4, residues 1-348): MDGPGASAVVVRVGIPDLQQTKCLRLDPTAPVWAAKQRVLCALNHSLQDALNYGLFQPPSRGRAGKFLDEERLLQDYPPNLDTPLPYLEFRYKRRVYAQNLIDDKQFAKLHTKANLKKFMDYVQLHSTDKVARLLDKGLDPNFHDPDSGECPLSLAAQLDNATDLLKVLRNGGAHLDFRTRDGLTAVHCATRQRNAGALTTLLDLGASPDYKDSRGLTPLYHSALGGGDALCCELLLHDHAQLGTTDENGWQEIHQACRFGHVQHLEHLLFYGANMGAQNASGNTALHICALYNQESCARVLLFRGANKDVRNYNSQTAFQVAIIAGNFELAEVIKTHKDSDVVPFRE
His6-SUMO fusion protein of the Shank3 Ank repeats (residues 99-348) (Q9JLU4, residues 99-348): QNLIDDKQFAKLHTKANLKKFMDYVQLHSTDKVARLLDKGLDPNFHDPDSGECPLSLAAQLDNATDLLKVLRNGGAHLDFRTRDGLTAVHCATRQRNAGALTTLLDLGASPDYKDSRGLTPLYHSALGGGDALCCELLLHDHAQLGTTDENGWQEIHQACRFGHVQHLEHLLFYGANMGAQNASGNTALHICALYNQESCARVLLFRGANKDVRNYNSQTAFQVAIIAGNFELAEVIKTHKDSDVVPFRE

B1: Sorbin and SH3 domain-containing protein 1 (protein, UniProt Q62417 1-1290)
chain: MSSECDVGSSKAVVNGLASGNHGPDKDMDPTKICTGKGTVTLRASSSYRGTPSSSPVSPQESPKHESKSGLEPEDPSADEWKLSSSADTNGNAQPSPLAAKGYRSVHPSLSADKPQGSPLLNEVSSSHIETDSQDFPPTSRPSSAYPSTTIVNPTIVLLQHNRDPASERRAGEQDPVPTPAELTSPGRASERRAKDASRRVVRSAQDLSDVSTDEVGIPLRNTERSKDWYKTMFKQIHKLNRDDDSDVHSPRYSFSDDTKSPLSVPRSKSEMNYIEGEKVVKRSATLPLPARSSSLKSSPERNDWEPLDKKVDTRKYRAEPKSIYEYQPGKSSVLTNEKMSRDISPEEIDLKNEPWYKFFSELEFGRPTNLEKDLSFCQAELEADLEKVETVNKSPSANSPQSSAVSPTPDITSEPPGYIYSSNFHAVKRESDGTPGGLASLENERQIYKSVLEGGDIPLQGLSGLKRPSSSASTKVDRKGGNAHMISSSSVHSRTFHTSNALGPGCKHKKPLSAAKACISEILPSKFKPRLSAPSALLQEQKSVLLPSEKAQSCENLCVSLNDSKRGLPLRVGGSIENLLMRSRRDYDSKSSSTMSLQEYGTSSRRPCPLSRKAGLHFSMFYRDMHQINRAGLSLGSISSSSVRDLASHFERSSLTLARGELGASQEGSEHIPKHTVSSRITAFEQLIQRSRSMPSLDFSGRLSKSPTPVLSRSGLTSARSAESLLESTKLRPREMDGMDSGGVYASPTCSNMADHALSFRSLVPSEPLSICSDELDHCSNVSNDSREGSGGSVHGDFPKHRLNKCKGTCPASYTRFTTIRKHEQQSSRQSDWRSDSRGDKNSLLRNIHLMSPLPFRLKKPLQQHPRQPPPSDSSESPAGQKADLPCHDPQDQPHSAGKPQVPTRLSSRHTMARLSHNSEPPLDRPAGLEDCTRAINNGNPVPYSDHGLDRNNNPQSELAAAHGDSESPRHFIPADYLESTEEFIRRRHDDKEKLLADQRRLKREQEEADIAARRHTGVIPTHHQFITNERFGDLLNIDDTAKRKSGLEMRPARAKFDFKAQTLKELPLQKGDVVYIYRQIDQNWYEGEHHGRVGIFPRTYIELLPPAEKAQPRKLAPVQVLEYGEAIAKFNFNGDTQVEMSFRKGERITLLRQVDENWYEGRIPGTSRQGIFPITYVDVLKRPLVKTPVDYIDLPYSSSPSRSATVSPQQPQAQQRRVTPDRSQPSLDLCSYQALYSYVPQNDDELELRDGDIVDVMEKCDDGWFVGTSRRTRQFGTFPGNYVKPLYL
B2: Pancreatic alpha-amylase (protein, UniProt P00688 16-508)
chain: QYDPHTSDGRTAIVHLFEWRWVDIAKECERYLAPKGFGGVQVSPPNENVVVHNPSRPWWERYQPISYKICTRSGNEDEFRDMVTRCNNVGVRIYVDAVINHMCGAGNPAGTSSTCGSYLNPNNREFPAVPYSAWDFNDNKCNGEIDNYNDAYQVRNCRLTGLLDLALEKDYVRTKVADYMNHLIDIGVAGFRLDAAKHMWPGDIKAVLDKLHNLNTKWFSQGSRPFIFQEVIDLGGEAIKGSEYFGNGRVTEFKYGAKLGTVIRKWNGEKMSYLKNWGEGWGLVPSDRALVFVDNHDNQRGHGAGGSSILTFWDARMYKMAVGFMLAHPYGFTRVMSSYRWNRNFQNGKDQNDWIGPPNNNGVTKEVTINADTTCGNDWVCEHRWRQIRNMVAFRNVVNGQPFSNWWDNNSNQVAFSRGNRGFIVFNNDDWALSATLQTGLPAGTYCDVISGDKVDGNCTGLRVNVGSDGKAHFSISNSAEDPFIAIHADSKL

Tests used:
[1] = molecular target: His6-SUMO fusion protein of the complete Shank3 N-terminus (SPN-Ank, residues 1-348) (rat) (UniProt Q9JLU4); assay: affinity purification with mass spectrometry; His6-SUMO-Shank3 fragments (SPN-Ank or Ank only) coupled to NHS-Sepharose; mouse forebrain PSD fraction solubilised in DOC buffer (50 mM Tris pH 9.0, 1% Na-deoxycholate); 2 h, 5 washes; LC-MS/MS, LFQ intensities compared with a SUMO matrix; four purifications (two SPN-Ank, two Ank only); only the target purified
[2] = molecular target: His6-SUMO fusion protein of the Shank3 Ank repeats (residues 99-348) (rat) (UniProt Q9JLU4); assay: as above

Binder	binding [1]	binding [2]
B1	binds	binds
B2	binds	binds

Results are given in words; binding and its absence hold for the method and conditions named. Binding seen in cells or lysates may run through a third protein. A yes stands for co-enrichment or nearness to the bait. Other partners may have been found.
